This is one part of the list. The data scatter; read single values as rough.

The chains behind the UniProt entries cited, without tags or fusion partners. Where a name states a change or a piece, a line headed by the entry shows the natural chain unless it says otherwise. Residues count along the entry.
UniProt O00429: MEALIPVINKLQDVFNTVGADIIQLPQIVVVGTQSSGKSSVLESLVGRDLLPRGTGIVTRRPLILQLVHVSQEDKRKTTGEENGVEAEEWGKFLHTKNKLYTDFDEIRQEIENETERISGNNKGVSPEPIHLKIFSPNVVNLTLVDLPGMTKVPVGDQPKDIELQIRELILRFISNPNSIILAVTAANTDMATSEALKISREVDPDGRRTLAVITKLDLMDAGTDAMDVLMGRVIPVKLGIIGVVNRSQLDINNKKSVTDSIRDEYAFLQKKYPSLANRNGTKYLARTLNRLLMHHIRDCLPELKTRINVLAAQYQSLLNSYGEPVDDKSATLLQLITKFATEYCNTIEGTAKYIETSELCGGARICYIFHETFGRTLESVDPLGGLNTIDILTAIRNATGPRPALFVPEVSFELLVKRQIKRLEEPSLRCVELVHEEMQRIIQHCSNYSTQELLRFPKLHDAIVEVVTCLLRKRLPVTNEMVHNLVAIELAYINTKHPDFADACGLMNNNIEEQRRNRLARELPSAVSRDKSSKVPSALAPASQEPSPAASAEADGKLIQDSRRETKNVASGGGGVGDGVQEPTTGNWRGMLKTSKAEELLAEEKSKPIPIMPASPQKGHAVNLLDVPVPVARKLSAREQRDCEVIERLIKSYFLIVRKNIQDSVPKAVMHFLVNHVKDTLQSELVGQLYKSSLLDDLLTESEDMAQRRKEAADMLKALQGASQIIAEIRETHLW
UniProt Q9UNQ2: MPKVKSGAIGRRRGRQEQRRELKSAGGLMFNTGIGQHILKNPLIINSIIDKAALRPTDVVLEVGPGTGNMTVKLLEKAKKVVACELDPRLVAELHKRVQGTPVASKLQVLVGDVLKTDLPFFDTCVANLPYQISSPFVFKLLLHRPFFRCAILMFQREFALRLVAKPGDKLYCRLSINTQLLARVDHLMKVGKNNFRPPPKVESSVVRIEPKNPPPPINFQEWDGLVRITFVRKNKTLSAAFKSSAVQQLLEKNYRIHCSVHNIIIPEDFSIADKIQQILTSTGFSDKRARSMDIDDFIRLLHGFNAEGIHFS
UniProt O00273: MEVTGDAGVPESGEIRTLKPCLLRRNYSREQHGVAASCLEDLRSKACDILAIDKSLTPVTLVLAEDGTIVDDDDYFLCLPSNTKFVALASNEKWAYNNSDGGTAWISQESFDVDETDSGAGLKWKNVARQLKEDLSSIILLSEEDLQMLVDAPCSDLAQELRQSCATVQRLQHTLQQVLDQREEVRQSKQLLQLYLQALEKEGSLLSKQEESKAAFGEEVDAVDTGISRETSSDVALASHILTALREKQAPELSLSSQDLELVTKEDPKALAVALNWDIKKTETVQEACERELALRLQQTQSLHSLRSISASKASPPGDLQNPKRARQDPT
UniProt Q9BTZ2, 65-92: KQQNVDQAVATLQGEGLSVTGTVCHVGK
UniProt Q9UPY3: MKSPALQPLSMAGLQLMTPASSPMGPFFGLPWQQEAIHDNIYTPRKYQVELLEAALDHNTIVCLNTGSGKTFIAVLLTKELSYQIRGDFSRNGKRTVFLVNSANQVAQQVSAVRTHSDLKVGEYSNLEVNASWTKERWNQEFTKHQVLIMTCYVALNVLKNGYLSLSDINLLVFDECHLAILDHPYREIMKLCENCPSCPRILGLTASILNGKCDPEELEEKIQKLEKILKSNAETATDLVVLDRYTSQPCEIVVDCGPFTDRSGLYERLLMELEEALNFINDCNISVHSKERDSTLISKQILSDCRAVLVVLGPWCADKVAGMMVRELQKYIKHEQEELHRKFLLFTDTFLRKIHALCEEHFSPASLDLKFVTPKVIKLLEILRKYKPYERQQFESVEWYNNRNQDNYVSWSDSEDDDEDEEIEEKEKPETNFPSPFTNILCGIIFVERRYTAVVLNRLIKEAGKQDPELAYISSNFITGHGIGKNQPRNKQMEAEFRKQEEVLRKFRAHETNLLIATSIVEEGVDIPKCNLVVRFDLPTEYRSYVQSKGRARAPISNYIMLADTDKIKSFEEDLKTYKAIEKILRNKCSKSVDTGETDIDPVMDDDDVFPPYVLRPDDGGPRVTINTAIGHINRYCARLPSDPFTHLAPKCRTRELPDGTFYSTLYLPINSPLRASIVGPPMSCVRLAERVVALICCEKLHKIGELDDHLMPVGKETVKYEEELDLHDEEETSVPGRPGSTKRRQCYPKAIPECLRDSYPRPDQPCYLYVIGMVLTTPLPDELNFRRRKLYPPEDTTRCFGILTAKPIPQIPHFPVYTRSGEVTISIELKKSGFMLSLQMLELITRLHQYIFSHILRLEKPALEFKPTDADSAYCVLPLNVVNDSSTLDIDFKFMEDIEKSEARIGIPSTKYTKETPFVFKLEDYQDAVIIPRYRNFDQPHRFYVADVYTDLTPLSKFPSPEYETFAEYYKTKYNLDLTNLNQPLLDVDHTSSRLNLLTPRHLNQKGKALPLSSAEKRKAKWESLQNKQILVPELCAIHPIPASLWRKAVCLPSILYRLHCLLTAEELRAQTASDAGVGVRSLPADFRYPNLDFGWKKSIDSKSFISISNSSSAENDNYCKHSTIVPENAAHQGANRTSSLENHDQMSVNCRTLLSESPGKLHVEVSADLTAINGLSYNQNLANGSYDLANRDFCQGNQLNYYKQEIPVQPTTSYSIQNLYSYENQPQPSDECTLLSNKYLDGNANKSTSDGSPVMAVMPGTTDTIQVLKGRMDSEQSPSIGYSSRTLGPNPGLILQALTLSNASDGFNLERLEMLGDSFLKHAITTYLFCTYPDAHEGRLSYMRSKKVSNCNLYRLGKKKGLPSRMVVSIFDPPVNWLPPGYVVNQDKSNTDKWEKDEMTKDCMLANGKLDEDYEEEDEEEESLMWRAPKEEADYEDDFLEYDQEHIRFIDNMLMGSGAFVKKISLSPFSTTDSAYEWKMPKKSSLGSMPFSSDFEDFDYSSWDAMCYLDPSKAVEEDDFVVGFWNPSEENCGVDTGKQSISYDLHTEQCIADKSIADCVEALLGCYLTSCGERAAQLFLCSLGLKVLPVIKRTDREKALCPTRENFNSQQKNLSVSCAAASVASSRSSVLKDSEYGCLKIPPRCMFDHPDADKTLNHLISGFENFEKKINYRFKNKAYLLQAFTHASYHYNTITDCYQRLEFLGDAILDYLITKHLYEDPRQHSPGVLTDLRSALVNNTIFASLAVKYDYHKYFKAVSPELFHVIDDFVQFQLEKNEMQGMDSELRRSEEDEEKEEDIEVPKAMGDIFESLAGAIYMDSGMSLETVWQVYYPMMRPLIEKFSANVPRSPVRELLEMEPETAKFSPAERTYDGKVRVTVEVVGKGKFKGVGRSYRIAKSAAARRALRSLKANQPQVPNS
UniProt O43143: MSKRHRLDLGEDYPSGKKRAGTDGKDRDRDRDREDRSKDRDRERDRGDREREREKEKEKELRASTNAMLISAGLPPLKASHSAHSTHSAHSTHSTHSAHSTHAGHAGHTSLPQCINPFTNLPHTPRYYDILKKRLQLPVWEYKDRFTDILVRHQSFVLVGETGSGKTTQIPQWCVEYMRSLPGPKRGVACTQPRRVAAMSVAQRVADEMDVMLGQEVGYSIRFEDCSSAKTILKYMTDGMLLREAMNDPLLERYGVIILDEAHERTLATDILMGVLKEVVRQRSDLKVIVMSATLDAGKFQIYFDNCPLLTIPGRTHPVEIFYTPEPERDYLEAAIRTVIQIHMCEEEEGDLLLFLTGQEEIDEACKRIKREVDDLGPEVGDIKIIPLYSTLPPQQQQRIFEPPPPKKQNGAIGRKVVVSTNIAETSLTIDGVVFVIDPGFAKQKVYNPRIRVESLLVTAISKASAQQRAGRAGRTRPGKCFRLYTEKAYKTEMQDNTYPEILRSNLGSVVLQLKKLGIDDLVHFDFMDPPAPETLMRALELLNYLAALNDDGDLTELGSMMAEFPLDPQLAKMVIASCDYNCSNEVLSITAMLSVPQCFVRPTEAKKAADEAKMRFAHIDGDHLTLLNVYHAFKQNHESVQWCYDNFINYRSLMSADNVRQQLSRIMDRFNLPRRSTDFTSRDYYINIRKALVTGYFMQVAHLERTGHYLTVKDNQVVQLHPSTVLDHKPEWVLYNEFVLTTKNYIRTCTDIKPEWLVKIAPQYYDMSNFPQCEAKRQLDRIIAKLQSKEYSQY
UniProt Q15392: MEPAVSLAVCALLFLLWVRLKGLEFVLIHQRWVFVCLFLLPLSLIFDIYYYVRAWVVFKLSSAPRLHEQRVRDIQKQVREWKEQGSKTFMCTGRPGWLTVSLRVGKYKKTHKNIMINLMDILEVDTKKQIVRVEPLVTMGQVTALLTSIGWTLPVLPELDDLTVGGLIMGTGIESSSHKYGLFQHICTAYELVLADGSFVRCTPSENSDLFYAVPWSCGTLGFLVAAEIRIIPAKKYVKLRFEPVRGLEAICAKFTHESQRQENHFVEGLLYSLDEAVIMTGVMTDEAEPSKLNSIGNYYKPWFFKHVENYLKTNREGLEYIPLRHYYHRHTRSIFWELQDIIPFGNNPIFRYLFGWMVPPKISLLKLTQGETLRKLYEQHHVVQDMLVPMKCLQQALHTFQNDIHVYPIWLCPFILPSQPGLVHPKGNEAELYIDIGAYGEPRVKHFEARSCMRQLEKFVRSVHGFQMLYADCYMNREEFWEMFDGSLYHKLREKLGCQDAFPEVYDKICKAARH
UniProt Q5VZ89: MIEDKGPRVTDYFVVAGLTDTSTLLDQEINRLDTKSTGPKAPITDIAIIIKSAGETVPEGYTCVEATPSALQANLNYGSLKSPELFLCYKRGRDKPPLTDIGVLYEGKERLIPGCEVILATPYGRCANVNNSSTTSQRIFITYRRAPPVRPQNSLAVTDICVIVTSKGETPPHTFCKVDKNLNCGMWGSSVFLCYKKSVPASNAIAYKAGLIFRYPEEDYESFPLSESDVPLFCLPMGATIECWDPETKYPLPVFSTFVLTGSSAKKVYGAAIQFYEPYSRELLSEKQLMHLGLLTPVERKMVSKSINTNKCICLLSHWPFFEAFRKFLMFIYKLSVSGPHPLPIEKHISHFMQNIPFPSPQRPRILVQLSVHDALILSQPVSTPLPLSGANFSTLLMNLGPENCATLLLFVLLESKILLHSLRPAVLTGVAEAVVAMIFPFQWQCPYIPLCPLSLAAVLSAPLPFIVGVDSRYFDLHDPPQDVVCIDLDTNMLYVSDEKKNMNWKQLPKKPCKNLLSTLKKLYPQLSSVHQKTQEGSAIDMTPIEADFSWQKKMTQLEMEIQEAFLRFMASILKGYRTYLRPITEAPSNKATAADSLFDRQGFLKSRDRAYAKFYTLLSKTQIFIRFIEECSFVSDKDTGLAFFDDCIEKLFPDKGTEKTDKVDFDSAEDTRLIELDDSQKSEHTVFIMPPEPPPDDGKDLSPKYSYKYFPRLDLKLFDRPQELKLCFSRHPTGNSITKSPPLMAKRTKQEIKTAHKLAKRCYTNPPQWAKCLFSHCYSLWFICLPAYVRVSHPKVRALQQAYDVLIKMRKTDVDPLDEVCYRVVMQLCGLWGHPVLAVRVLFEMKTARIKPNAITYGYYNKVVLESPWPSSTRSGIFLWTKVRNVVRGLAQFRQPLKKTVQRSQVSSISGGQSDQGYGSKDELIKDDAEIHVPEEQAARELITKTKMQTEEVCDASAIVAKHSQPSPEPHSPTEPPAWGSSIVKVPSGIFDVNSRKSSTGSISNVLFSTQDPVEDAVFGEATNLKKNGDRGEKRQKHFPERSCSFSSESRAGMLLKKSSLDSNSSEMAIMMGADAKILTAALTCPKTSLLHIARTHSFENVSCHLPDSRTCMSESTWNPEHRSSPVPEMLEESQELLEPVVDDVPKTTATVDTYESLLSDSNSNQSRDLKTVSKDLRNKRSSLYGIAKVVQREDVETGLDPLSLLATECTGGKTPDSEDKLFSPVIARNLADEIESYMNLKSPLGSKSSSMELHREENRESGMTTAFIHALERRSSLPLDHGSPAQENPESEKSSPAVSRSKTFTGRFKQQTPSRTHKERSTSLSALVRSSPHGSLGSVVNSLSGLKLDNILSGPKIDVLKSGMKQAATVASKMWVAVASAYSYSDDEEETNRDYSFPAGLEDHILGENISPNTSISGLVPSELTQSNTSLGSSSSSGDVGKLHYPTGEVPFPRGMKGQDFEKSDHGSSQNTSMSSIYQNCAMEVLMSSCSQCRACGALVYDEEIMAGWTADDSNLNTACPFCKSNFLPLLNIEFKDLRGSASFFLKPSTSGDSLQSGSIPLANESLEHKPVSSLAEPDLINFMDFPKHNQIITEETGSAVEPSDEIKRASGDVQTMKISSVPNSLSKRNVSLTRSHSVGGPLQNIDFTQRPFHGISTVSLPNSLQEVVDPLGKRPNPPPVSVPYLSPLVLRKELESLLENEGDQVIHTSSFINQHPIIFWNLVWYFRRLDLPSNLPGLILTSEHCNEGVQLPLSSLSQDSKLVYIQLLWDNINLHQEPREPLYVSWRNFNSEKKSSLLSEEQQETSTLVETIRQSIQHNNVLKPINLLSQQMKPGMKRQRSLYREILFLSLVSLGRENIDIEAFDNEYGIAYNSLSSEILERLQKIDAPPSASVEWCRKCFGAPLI

Compound in one assay: ClCC(=O)N[C@H]1CCCc2ccccc12
The assay can be described thus: log2 mean competition ratio of IA-DTB cysteine labelling (DMSO/compound) (log2 ratio); higher = stronger cysteine engagement by compound. The following applies: 50 µM; treatment time: 4 h; cell line lysate: HEK293T. How it is done:
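IA-DTB competitive cysteine chemoproteomics in HEK293T RIPA lysate. Lysates were treated with compound 29 or 30 at 50 or 200 µM for 4 h, then IA-DTB (500 µM, 1 h), trypsin-digested, NeutrAvidin-enriched and analysed by diaPASEF. Competition ratio = intensity DMSO / intensity compound (n=4 treated, n=64 DMSO); binding: mean log2 CR ≥ 1 and p ≤ 0.05 plus QC filters. Target is the cysteine site.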
In the case of DOCK9 C628 (UniProt Q9BZ29), the “log2 mean competition ratio” value was -0.629.
The same measure, in the same setting: under DNM1L C345 (UniProt O00429) stands -0.148.
With DHX57 C1349 (UniProt Q6P158), the “log2 mean competition ratio” value was -0.455.
On the same count and under the same terms, under DOCK6 C1853 (UniProt Q96HP0) stands 0.0171; under DIMT1 C84 (UniProt Q9UNQ2), -0.0134; under DPYSL3 C248 (UniProt Q14195), 0.112.
Still for that read-out and setting: as for DFFA C21 (UniProt O00273), the figure is 0.579; as for DNAJC2 C276 (UniProt Q99543), -0.241.
Same read-out and setting: under DHRS4 C88 (UniProt Q9BTZ2) stands 0.677; under DOCK4 C530, -0.381.
Regarding DICER1 C1197 (UniProt Q9UPY3), the “log2 mean competition ratio” value came to 0.717.
Same read-out and setting: under DHX15 C226 (UniProt O43143) stands -0.0884; under DNAJC13 C1474 (UniProt O75165), -0.488; under DICER1 C1553 (UniProt Q9UPY3), -0.276.
For DPAGT1 C42 (UniProt Q9H3H5), the “log2 mean competition ratio” value is -0.218.
On the same count and under the same terms, under DHCR24 C499 (UniProt Q15392) stands -0.0331; under DIPK2A C236 (UniProt Q8NDZ4), -0.121.
As for DENND4C C763 (UniProt Q5VZ89), the “log2 mean competition ratio” value is -0.129.
Same read-out and setting: as for DENND4C C1113 (UniProt Q5VZ89), the figure is -0.464.
The same measure, in the same setting: as for DNTTIP1 C156 (UniProt Q9H147), the figure is -0.166.

Still in this assay, the particulars now being: 200 µM; treatment time: 4 h; cell line lysate: HEK293T.
As to DOCK9 C628 (UniProt Q9BZ29), the “log2 mean competition ratio” value turned out to be 0.242.
The same measure, in the same setting: under DNM1L C345 (UniProt O00429) stands -0.392.
Take DHX57 C1349 (UniProt Q6P158): the “log2 mean competition ratio” value is -0.192.
With DOCK6 C1853 (UniProt Q96HP0), the “log2 mean competition ratio” value is -0.0319.
Still for that read-out and setting: under DIMT1 C84 (UniProt Q9UNQ2) stands 0.00966.
DPYSL3 C248 (UniProt Q14195): the “log2 mean competition ratio” value was -0.283.
Still for that read-out and setting: as for DFFA C21 (UniProt O00273), the figure is -0.265.
On the same count and under the same terms, under DNAJC2 C276 (UniProt Q99543) stands 0.0298; under DHRS4 C88 (UniProt Q9BTZ2), -0.491; under DOCK4 C530, -0.467.
Same read-out and setting: as for DICER1 C1197 (UniProt Q9UPY3), the figure is 0.128.
For the target DHX15 C226 (UniProt O43143), the “log2 mean competition ratio” value was 0.0762.
On the same count and under the same terms, as for DNAJC13 C1474 (UniProt O75165), the figure is -0.253; as for DICER1 C1553 (UniProt Q9UPY3), -0.0804.
On to DPAGT1 C42 (UniProt Q9H3H5), for which the “log2 mean competition ratio” value is -0.24.
Still for that read-out and setting: as for DHCR24 C499 (UniProt Q15392), the figure is 0.166.
Same read-out and setting: as for DIPK2A C236 (UniProt Q8NDZ4), the figure is 0.139; as for DENND4C C763 (UniProt Q5VZ89), -0.0594; as for DENND4C C1113 (UniProt Q5VZ89), 0.107.
The same measure, in the same setting: under DNTTIP1 C156 (UniProt Q9H147) stands 0.07.

These data come from the supplement of paper PMC11732987, “Enantioselective OTUD7B fragment discovery through chemoproteomics screening and high-throughput optimisation” (Communications Chemistry, 2025).
